In data set [1] the test system is T. cruzi epimastigotes. The experiment in a line: Activity against Trypanosoma cruzi epimastigotes (Alamar Blue growth inhibition). It counts as cell-based, Trypanosoma cruzi (strain CL Brener). Particulars: ratio of IC50 values obtained with L6 cells and T. cruzi epimastigotes. The method, then:
Trypanocidal activity was assessed by growing parasites in microtiter plates in the presence of various drug concentrations. […] The plates were incubated for 4 days at 28 °C and 20 μL Alamar Blue (Biosource UK Ltd) was then added to each well. After an additional 3 days incubation, the fluorescence was determined using a Gemini fluorescent plate reader (Molecular Devices). Inhibition of growth was calculated by comparison with control values and IC50 and IC90 values were determined in triplicate using linear regression analysis.

Data set [2] relates to T. cruzi intracellular amastigotes. It counts as cell-based, Trypanosoma cruzi CL Brener PpyRE9h:mScarlet. The method, then:
Assays were performed in 96-well black (clear bottom) microtitre plates (Corning Inc.). HeLa ^† cells were seeded at 10^4 per well, incubated for 3 days, and then infected with T. cruzi CL Brener PpyRE9h : mScarlet[25] culture form trypomastigotes (1 : 1 multiplicity of infection). After 16 hours, extracellular parasites were removed by washing in growth medium (×3), test compounds were added, and the plates incubated for 5 days. Fluorescence intensities were then determined using a BMG FLUOstar Omega plate reader (ex 545 nm, em 590 nm), and the data analysed using GraphPad Prism 9.0 software. The values were expressed as IC50/90 ± SD and are the mean of triplicate experiments.

Like-named read-outs stand apart in the source and are kept apart here.

In the case of `O=C(NCc1ccc(C2C3CC4CC(C3)CC2C4)cc1)c1ccc([N+](=O)[O-])o1` (stereo not shown) [2b, N-[4-(2-Adamantyl)benzyl]-5-nitrofuran-2-carboxamide], the “S.I. (epimastigotes) IC50/Tc IC50” value in data set [1] is 3. As to `O=C(NCCc1ccc(C2C3CC4CC(C3)CC2C4)cc1)c1ccc([N+](=O)[O-])o1` (stereo not shown) [2c, N-[4-(2-Adamantyl)phenethyl]-5-nitrofuran-2-carboxamide], the “S.I. (epimastigotes) IC50/Tc IC50” value in data set [1] is 6.

Regarding `O=C(NCCn1cnc([N+](=O)[O-])n1)c1ccc(C23CC4CC(CC(C4)C2)C3)cc1` [6a, 4-(1-Adamantyl)-N-[2-(3-nitro-1H-1,2,4-triazol-1-yl)ethyl] benzamide], the “S.I. (epimastigotes) IC50/Tc IC50” value in data set [1] turned out to be 51. The “S.I. (intracellular) IC50/Tc IC50” value in data set [2] is on record as 6. With `O=C(Cc1ccc(C23CC4CC(CC(C4)C2)C3)cc1)NCCn1cnc([N+](=O)[O-])n1` [6b, 2-[4-(1-Adamantyl)phenyl]-N-[2-(3-nitro-1H-1,2,4-triazol-1-yl)ethyl]acetamide], the “S.I. (epimastigotes) IC50/Tc IC50” value in data set [1] is listed as 154. Moreover, in data set [2], the “S.I. (intracellular) IC50/Tc IC50” value turned out to be 16. Turning to `O=C(CCc1ccc(C23CC4CC(CC(C4)C2)C3)cc1)NCCn1cnc([N+](=O)[O-])n1` [6c, 3-[4-(1-Adamantyl)phenyl]-N-[2-(3-nitro-1H-1,2,4-triazol-1-yl)ethyl]propanamide], the “S.I. (epimastigotes) IC50/Tc IC50” value in data set [1] is listed as 50. Besides, the “S.I. (intracellular) IC50/Tc IC50” value in data set [2] amounted to 15.

As for `O=C(NCCCn1cnc([N+](=O)[O-])n1)c1ccc(C23CC4CC(CC(C4)C2)C3)cc1` [6d, 4-(1-Adamantyl)-N-[3-(3-nitro-1H-1,2,4-triazol-1-yl)propyl] benzamide], in data set [1], the “S.I. (epimastigotes) IC50/Tc IC50” value is listed as 49. Besides, in data set [2], the “S.I. (intracellular) IC50/Tc IC50” value came to 6.

In the case of `O=C(Cc1ccc(C23CC4CC(CC(C4)C2)C3)cc1)NCCCn1cnc([N+](=O)[O-])n1` [6e, 2-[4-(1-Adamantyl)phenyl]-N-[3-(3-nitro-1H-1,2,4-triazol-1-yl)propyl]acetamide], the “S.I. (epimastigotes) IC50/Tc IC50” value in data set [1] was 168. Further, the “S.I. (intracellular) IC50/Tc IC50” value in data set [2] is 9. On the same counts, the results for `O=C(CCc1ccc(C23CC4CC(CC(C4)C2)C3)cc1)NCCCn1cnc([N+](=O)[O-])n1` [6f, 3-[4-(1-Adamantyl)phenyl]-N-[3-(3-nitro-1H-1,2,4-triazol-1-yl)propyl]propanamide] are 43 and 8. Take `O=C(Cn1ccnc1[N+](=O)[O-])NCc1ccccc1` [Bzn, benznidazole, reference compound]: the “S.I. (epimastigotes) IC50/Tc IC50” value in data set [1] amounted to 95. Also, in data set [2] (ratio of IC50 values obtained with L6 cells and T. cruzi intracellular amastigotes), the “S.I. (intracellular) IC50/Tc IC50” value was 490.

For the origin of these results see paper PMC12679539, “Synthesis and evaluation of nitroheterocyclic aromatic adamantane amides with trypanocidal activity. Part II” (RSC Medicinal Chemistry, 2025).
